# From article PMC7309601, “Efficacy of THN201, a Combination of Donepezil and Mefloquine, to Reverse Neurocognitive Deficits in Alzheimer’s Disease” (Frontiers in Neuroscience, 2020)
# Experiments:
# [1] = Pharmacokinetics of DPZ and MEF in serum and brain; conditions: rat, in vivo
# Protocol: Drugs were administered p.o., once per day for 14 days.
# Blood was collected on the 14th treatment day, just prior to drug administration (T0) and then 30 min, 1, 2, 4, 8, and 24 h later. Blood was collected by retro-orbital puncture except for the last collection, which was made by intracardiac puncture. After coagulation, blood samples were centrifuged at 3,000 × g for 15 min, and serum was collected and stored at −80°C. Rats were sacrificed by decapitation immediately after the last blood collection, and their brains including brainstem and cerebellum were removed as one piece, placed on tinfoil precooled on dry ice and stored at −80°C until drug quantifications.
# One volume of brain or serum samples was added to three volumes of human serum EDTA K3, and the mixture was homogenized under magnetic stirring for 15 min for analysis using a Sciex API4000 Qtrap mass spectrometer coupled to a Shimadzu HPLC system (Shimadzu Corporation, Marne-la-Vallée, France).
# (A,C) Blood samples were collected before treatment (T0) and then at 0.5, 1, 2, 4, 8, and 24 h after the last administration on day 14. (B,D) Brain samples were collected on day 15, 24 h after the last drug administration. […] No statistical analysis applicable (C,D). Bars in black indicate combination treatments.
# [2] = tested on: Aβ25–35 peptide-injected mice; experiment: Novel object recognition (NOR) task in Aβ25–35-injected mice; type: in vivo; conditions: DPZ 0.25 mg/kg p.o. daily from day 1; Aβ25–35 i.c.v.
# Protocol: Both novel object recognition (NOR) and novel object location (NOL) tests were carried out in an open-field arena during three phases ([Leger et al., 2013]; [Vogel-Ciernia and Wood, 2014]; [Lueptow, 2017]). (i) For the habituation phase on the first day, mice were allowed to freely explore the empty apparatus. (ii) On the second day, two identical objects were placed at two opposite edges of the arena. Time spent by the mouse exploring the two objects was recorded. (iii) Twenty-four hours later, one of the two familiar objects was replaced by a novel one (NOR) or displaced (NOL). Mice were allowed to explore the whole arena during 10 min for each of the three phases. The preference index was calculated as the ratio of the duration of contacts with the novel/displaced object over the total duration of contacts with the two objects. Locomotion was recorded using EthoVision software (Noldus, Paris, France).
smiles,measurement,setting,value
"COc1cc2c(cc1OC)C(=O)C(CC1CCN(Cc3ccccc3)CC1)C2 (stereo not drawn) [DPZ, Donepezil]",concentration at 24 h,[1]; 0.25 mg/kg,13 ± 2.17 ng/g
same,concentration at 24 h,[1]; 1 mg/kg,78.1 ± 11.5 ng/g
same,NOR test phase: effect on Aβ-induced impairment (preference index),[2],did not reverse the Aβ-induced impairment
